± gives the standard deviation of the averaged measurements. The list shows a part of the results.
Compound: Nc1nc2c(ncn2[C@@H]2O[C@H](COP(=O)(O)OP(=O)(O)OP(=O)(O)O)[C@@H](O)[C@H]2O)c(=O)[nH]1 [guanosine triphosphate]
Assay: NP40-soluble protein abundance relative to vehicle (solubility fold change) (ratio); higher = more soluble protein in presence of GTP
In short: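 Each value is a fold change relative to the detergent-processed vehicle, calculated per replicate from vsn-normalised intensities. Jurkat crude lysate received eight concentrations (0.1 to 10 mM) for 10 min at room temperature and 3 min at 37 °C, then was solubilised in 0.8% NP40 with benzonase (60 min, 4 °C). The ultracentrifuged supernatant was TMT-labelled and run by LC-MS/MS in three independent experiments.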

Amino acid sequences for entries named in this document (tags omitted). A change or cut given only in a name is not applied to a line headed by its entry.
UniProt P63098, whole entry, looked up: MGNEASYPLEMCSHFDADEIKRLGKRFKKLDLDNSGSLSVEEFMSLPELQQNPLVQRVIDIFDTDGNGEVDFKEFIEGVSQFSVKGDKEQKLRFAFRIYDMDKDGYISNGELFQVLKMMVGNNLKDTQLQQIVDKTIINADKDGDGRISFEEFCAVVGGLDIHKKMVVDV
UniProt Q16773: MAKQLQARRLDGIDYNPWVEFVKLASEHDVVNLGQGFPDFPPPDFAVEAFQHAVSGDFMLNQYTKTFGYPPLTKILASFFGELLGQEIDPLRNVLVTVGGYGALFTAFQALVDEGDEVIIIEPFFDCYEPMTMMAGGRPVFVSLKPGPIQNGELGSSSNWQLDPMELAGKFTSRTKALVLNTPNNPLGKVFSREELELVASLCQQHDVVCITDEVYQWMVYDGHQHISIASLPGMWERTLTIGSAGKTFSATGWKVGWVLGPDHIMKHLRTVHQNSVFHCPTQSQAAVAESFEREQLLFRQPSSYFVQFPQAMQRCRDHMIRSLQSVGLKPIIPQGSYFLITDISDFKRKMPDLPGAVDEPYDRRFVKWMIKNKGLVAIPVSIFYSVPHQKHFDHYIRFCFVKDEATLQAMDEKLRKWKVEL
UniProt Q86Y82: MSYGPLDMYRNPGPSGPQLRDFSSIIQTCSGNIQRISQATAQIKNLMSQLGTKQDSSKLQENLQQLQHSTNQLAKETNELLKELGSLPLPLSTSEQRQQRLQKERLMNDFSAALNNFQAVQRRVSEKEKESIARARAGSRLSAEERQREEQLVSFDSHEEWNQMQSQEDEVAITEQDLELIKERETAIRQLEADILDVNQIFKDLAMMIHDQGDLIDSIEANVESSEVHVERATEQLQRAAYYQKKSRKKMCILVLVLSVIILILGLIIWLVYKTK
UniProt Q8N3C7: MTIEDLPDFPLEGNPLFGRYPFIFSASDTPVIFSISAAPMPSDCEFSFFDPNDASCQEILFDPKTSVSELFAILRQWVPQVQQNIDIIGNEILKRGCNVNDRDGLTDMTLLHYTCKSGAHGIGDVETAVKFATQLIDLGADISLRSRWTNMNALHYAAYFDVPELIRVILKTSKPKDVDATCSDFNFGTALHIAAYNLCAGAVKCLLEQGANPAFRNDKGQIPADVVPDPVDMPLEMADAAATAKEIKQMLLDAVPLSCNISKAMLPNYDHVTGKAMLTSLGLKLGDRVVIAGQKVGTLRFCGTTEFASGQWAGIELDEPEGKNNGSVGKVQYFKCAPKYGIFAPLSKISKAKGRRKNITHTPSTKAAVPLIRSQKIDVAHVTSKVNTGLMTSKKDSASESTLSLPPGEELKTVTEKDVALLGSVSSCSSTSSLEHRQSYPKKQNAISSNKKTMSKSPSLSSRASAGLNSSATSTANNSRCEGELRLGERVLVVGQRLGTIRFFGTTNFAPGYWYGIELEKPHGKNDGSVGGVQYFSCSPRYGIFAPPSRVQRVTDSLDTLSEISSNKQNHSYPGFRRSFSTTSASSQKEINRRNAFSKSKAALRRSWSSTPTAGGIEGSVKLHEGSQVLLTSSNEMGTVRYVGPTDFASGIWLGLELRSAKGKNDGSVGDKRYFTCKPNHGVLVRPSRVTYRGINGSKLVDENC
UniProt P99999: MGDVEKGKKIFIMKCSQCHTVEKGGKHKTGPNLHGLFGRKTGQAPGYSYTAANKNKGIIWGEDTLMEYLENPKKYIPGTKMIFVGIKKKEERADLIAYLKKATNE
UniProt P20839, whole entry, looked up: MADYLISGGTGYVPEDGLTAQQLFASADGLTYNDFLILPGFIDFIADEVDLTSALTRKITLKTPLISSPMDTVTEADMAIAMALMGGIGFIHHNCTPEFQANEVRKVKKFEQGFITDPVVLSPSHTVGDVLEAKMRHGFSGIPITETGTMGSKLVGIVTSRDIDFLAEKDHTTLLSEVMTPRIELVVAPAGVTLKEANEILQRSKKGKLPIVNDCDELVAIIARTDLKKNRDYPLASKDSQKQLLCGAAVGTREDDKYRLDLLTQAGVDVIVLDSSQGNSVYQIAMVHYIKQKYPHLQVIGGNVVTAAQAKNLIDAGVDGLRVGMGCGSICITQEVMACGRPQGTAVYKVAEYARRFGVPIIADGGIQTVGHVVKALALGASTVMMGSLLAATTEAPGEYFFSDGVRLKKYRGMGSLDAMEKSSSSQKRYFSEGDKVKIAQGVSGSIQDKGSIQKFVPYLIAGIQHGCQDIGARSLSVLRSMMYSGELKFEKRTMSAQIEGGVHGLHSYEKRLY
UniProt O00541, whole entry: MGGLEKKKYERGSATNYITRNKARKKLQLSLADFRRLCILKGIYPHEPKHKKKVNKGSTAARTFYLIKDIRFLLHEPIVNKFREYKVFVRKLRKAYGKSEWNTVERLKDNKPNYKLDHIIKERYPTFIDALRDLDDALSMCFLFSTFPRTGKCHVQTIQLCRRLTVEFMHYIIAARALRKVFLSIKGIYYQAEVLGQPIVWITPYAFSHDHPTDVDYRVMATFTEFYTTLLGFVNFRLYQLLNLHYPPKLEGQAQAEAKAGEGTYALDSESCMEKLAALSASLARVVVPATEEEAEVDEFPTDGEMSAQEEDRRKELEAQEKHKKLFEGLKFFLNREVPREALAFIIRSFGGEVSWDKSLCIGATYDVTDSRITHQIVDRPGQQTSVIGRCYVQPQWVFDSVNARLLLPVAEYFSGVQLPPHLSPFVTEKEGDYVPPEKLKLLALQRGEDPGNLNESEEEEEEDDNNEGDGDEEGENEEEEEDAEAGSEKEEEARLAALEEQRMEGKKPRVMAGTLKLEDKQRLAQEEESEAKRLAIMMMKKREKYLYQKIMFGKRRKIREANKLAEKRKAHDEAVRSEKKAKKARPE
UniProt Q99829: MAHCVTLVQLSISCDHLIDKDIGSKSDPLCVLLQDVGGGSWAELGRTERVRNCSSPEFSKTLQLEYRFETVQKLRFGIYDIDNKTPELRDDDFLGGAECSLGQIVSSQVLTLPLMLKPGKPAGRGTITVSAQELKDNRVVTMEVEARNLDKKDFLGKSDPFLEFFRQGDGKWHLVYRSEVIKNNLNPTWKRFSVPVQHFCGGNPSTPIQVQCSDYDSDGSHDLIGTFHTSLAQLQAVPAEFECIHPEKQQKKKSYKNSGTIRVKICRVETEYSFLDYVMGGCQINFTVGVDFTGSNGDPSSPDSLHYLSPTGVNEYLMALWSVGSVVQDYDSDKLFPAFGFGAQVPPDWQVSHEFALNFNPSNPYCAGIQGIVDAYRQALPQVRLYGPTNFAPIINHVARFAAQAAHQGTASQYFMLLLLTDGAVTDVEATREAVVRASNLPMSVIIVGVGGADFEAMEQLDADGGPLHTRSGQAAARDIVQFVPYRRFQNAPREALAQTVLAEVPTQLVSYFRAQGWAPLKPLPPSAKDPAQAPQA
UniProt Q5JSL3: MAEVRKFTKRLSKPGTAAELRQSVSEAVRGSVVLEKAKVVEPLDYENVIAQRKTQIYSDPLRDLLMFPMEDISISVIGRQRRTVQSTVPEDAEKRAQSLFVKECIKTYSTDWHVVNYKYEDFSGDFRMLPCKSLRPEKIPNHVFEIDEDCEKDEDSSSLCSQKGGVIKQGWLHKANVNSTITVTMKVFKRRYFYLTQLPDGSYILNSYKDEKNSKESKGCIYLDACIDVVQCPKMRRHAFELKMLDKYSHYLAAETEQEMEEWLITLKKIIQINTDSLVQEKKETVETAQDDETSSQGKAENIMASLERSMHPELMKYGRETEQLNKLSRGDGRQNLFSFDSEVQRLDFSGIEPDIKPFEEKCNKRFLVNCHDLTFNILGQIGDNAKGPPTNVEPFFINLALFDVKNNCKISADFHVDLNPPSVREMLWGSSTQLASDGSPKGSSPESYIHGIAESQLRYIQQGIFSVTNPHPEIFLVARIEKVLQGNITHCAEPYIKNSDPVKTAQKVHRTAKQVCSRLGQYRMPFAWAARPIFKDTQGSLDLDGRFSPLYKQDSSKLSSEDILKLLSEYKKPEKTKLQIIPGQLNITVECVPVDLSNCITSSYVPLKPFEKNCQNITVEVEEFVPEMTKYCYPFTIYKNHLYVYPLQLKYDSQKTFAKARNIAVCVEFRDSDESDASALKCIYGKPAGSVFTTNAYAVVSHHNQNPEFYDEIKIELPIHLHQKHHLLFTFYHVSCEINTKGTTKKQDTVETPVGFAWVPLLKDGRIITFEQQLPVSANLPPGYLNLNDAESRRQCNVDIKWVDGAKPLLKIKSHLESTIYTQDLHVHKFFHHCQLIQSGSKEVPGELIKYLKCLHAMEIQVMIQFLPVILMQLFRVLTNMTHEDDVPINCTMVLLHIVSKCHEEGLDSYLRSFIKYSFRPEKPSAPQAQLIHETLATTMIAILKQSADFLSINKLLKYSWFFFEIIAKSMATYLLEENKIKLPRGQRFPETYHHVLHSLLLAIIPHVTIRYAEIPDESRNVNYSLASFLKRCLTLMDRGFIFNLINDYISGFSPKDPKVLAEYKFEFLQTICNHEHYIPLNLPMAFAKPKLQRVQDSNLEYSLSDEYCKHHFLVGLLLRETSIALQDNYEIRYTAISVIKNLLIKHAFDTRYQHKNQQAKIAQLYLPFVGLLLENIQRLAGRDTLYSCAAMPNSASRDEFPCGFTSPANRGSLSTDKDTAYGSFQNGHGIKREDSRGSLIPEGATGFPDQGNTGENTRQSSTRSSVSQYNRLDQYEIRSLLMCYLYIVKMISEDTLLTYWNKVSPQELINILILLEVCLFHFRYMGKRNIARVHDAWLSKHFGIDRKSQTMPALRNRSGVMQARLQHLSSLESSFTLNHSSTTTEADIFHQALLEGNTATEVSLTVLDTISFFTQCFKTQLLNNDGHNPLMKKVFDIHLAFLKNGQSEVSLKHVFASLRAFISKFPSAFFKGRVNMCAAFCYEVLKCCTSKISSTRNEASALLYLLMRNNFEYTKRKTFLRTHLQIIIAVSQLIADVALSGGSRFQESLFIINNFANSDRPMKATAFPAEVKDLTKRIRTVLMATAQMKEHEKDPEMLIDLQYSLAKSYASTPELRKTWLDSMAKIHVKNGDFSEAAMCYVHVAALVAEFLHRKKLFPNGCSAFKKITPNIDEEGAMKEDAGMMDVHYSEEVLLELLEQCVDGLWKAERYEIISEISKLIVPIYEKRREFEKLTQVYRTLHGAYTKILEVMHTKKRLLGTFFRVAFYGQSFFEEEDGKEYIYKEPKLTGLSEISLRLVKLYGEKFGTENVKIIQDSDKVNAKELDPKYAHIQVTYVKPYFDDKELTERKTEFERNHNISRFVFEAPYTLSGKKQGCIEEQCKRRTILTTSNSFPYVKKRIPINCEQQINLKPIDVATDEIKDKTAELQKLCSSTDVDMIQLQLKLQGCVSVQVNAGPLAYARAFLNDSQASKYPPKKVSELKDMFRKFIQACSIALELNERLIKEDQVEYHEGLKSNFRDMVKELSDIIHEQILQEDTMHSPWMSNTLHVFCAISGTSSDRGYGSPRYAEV
UniProt Q96AT9: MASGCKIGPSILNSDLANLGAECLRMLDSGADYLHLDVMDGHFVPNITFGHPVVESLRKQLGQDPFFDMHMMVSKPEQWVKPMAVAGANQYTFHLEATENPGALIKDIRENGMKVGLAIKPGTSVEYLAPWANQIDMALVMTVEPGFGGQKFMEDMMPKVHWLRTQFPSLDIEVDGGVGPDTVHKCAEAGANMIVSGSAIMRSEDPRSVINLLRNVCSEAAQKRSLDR
UniProt Q969M7: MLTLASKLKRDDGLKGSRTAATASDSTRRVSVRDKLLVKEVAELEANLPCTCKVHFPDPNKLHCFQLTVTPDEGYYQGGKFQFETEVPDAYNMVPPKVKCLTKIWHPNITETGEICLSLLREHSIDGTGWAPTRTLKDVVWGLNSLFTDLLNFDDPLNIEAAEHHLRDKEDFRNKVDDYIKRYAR
UniProt Q32M88: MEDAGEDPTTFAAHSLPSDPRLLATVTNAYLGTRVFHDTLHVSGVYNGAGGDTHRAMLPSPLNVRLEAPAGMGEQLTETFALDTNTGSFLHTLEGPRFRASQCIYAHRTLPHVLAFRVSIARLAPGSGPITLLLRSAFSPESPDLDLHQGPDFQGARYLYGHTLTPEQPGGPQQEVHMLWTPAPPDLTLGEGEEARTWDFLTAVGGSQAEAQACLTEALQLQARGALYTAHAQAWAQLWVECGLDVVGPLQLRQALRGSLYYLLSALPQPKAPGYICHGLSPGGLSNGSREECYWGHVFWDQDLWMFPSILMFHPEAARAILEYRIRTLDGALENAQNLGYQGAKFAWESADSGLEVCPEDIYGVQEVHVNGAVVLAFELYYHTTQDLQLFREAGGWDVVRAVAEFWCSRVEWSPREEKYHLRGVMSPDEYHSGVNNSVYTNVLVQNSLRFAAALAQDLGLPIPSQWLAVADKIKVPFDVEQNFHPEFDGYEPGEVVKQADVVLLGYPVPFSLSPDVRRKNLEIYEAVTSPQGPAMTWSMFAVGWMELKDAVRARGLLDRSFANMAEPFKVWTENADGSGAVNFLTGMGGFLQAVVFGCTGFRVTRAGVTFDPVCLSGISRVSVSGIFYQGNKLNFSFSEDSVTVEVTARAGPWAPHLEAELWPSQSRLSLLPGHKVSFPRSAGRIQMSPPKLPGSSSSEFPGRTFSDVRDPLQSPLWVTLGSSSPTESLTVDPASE

Row | Target | NP40-soluble protein abundance (concentration: 0.1mM) | NP40-soluble protein abundance (concentration: 0.5mM) | NP40-soluble protein abundance (concentration: 1mM) | NP40-soluble protein abundance (concentration: 2mM) | NP40-soluble protein abundance (concentration: 4mM) | NP40-soluble protein abundance (concentration: 6mM) | NP40-soluble protein abundance (concentration: 8mM) | NP40-soluble protein abundance (concentration: 10mM)
1 | C9JRJ5 and related entries (UniProt Q9UGP4) | 1.01 ± 0.054 | 1 ± 0.021 | 1 ± 0.043 | 0.955 ± 0.025 | 0.963 ± 0.031 | 0.962 ± 0.021 | 1.01 ± 0.038 | 0.965 ± 0.034
2 | C9IY40 and related entries (UniProt Q5T653) | 1.13 ± 0.13 | 1.21 ± 0.24 | 1.28 ± 0.3 | 1.41 ± 0.47 | 1.39 ± 0.45 | 1.35 ± 0.43 | 1.32 ± 0.43 | 1.32 ± 0.41
3 | D6RD47 and related entries (UniProt P62266) | 0.983 ± 0.06 | 1.05 ± 0.074 | 1.02 ± 0.13 | 0.99 ± 0.19 | 0.859 ± 0.25 | 0.875 ± 0.24 | 0.737 ± 0.21 | 0.836 ± 0.24
4 | D3YTA9 and related entries (UniProt H7BYZ3+F6U1T9+P63098+D3YTA9) | 0.935 ± 0.039 | 0.906 ± 0.038 | 0.9516 ± 0.0055 | 0.95 ± 0.024 | 0.934 ± 0.02 | 0.927 ± 0.047 | 0.918 ± 0.072 | 0.95 ± 0.04
5 | A6NFX8 and related entries (UniProt Q9UKK9) | 1.05 ± 0.036 | 1.04 ± 0.07 | 0.987 ± 0.036 | 0.994 ± 0.079 | 0.968 ± 0.046 | 0.942 ± 0.052 | 0.93 ± 0.018 | 0.93 ± 0.01
6 | B7Z4W5 and related entries (UniProt Q5T278+Q16773+B7Z4W5) | 1.01 ± 0.093 | 1.02 ± 0.16 | 0.875 ± 0.038 | 0.872 ± 0.099 | 0.912 ± 0.017 | 0.833 ± 0.063 | 0.777 ± 0.045 | 0.799 ± 0.052
7 | B1AJQ6 and related entries (UniProt Q86Y82) | 0.895 ± 0.028 | 0.895 ± 0.064 | 0.958 ± 0.021 | 0.931 ± 0.069 | 0.955 ± 0.068 | 0.995 ± 0.048 | 0.989 ± 0.15 | 1.06 ± 0.054
8 | B5MCH3 and related entries (UniProt Q8N3C7) | 1.1 ± 0.068 | 1.2 ± 0.18 | 1.22 ± 0.23 | 1.3 ± 0.19 | 1.3 ± 0.18 | 1.37 ± 0.39 | 1.41 ± 0.27 | 1.32 ± 0.3
9 | C9JFR7 and related entries (UniProt P99999) | 0.84 ± 0.12 | 0.815 ± 0.17 | 0.86 ± 0.17 | 0.9 ± 0.18 | 0.851 ± 0.24 | 0.863 ± 0.14 | 0.859 ± 0.12 | 0.949 ± 0.14
10 | B1AMW1 and related entries (UniProt P19256) | 0.879 ± 0.05 | 0.937 ± 0.095 | 0.973 ± 0.11 | 0.915 ± 0.064 | 0.979 ± 0.038 | 1.03 ± 0.088 | 0.952 ± 0.036 | 0.958 ± 0.047
11 | A8MUS3 and related entries (UniProt P62750) | 0.928 ± 0.051 | 0.943 ± 0.041 | 1.07 ± 0.13 | 1.01 ± 0.14 | 0.946 ± 0.19 | 0.891 ± 0.17 | 0.773 ± 0.18 | 0.96 ± 0.21
12 | C9J381 and related entries (UniProt P20839) | 1.06 ± 0.051 | 1.16 ± 0.17 | 1.17 ± 0.2 | 1.22 ± 0.24 | 1.29 ± 0.27 | 1.2 ± 0.26 | 1.18 ± 0.27 | 1.15 ± 0.24
13 | B0YIW6 and related entries (UniProt P48444) | 1.06 ± 0.053 | 1.08 ± 0.078 | 1.02 ± 0.066 | 1.01 ± 0.11 | 1.02 ± 0.1 | 1.01 ± 0.083 | 0.975 ± 0.059 | 0.933 ± 0.067
14 | B5MCF9 and related entries (UniProt O00541) | 1.05 ± 0.073 | 1.06 ± 0.093 | 1 ± 0.041 | 0.996 ± 0.041 | 0.992 ± 0.046 | 0.966 ± 0.071 | 0.961 ± 0.047 | 0.937 ± 0.015
15 | C9JIF9 and related entries (UniProt P13798) | 0.987 ± 0.02 | 1.03 ± 0.05 | 0.941 ± 0.03 | 0.938 ± 0.066 | 0.911 ± 0.045 | 0.957 ± 0.057 | 0.908 ± 0.025 | 0.884 ± 0.027
16 | B0QZ18 and related entries (UniProt Q99829) | 0.995 ± 0.011 | 0.9817 ± 0.0091 | 0.896 ± 0.028 | 0.906 ± 0.011 | 0.858 ± 0.032 | 0.876 ± 0.022 | 0.849 ± 0.06 | 0.871 ± 0.058
17 | A8MT02 and related entries (UniProt P14678) | 1.06 ± 0.13 | 1.06 ± 0.13 | 1.19 ± 0.21 | 1.21 ± 0.19 | 1.24 ± 0.26 | 1.29 ± 0.19 | 1.36 ± 0.23 | 1.44 ± 0.34
18 | A6NIW2 and related entries (UniProt Q5JSL3) | 1.06 ± 0.06 | 1.11 ± 0.12 | 1.03 ± 0.1 | 1.02 ± 0.13 | 1.05 ± 0.11 | 1.01 ± 0.12 | 1.01 ± 0.065 | 1.02 ± 0.081
19 | B8ZZD4 and related entries (UniProt Q86VP1) | 1.01 ± 0.025 | 0.993 ± 0.064 | 0.98 ± 0.012 | 0.985 ± 0.022 | 0.993 ± 0.06 | 0.983 ± 0.016 | 0.982 ± 0.026 | 0.952 ± 0.018
20 | C9IYN3 and related entries (UniProt Q8WVV9+B7WPG3+D6W592+C9IYN3) | 1.07 ± 0.066 | 1.1 ± 0.087 | 0.979 ± 0.064 | 1 ± 0.1 | 1.01 ± 0.094 | 0.976 ± 0.1 | 0.958 ± 0.063 | 0.913 ± 0.12
21 | C9J6A7 and related entries (UniProt Q96AT9) | 0.879 ± 0.071 | 0.921 ± 0.18 | 0.903 ± 0.07 | 0.883 ± 0.19 | 0.82 ± 0.11 | 0.867 ± 0.15 | 0.817 ± 0.09 | 0.901 ± 0.16
22 | D6RDM7 and related entries (UniProt P61086) | 1.01 ± 0.06 | 0.986 ± 0.064 | 0.915 ± 0.05 | 0.912 ± 0.034 | 0.902 ± 0.041 | 0.899 ± 0.044 | 0.855 ± 0.054 | 0.854 ± 0.023
23 | C9J9P8 and related entries (UniProt Q969M7) | 0.98 ± 0.064 | 0.912 ± 0.049 | 1.04 ± 0.11 | 0.983 ± 0.093 | 0.97 ± 0.084 | 0.997 ± 0.05 | 0.937 ± 0.16 | 1.03 ± 0.11
24 | E7EMA9 and related entries (UniProt Q32M88) | 1.15 ± 0.044 | 1.05 ± 0.17 | 1.06 ± 0.23 | 1.12 ± 0.04 | 0.986 ± 0.24 | 0.972 ± 0.06 | 0.972 ± 0.16 | 0.897 ± 0.039

Only NP40-soluble protein abundance (concentration: 8mM) (2 entries from above):
Row | Target | NP40-soluble protein abundance (concentration: 8mM)
5 | A6NFX8 and related entries (UniProt Q9UKK9) | 0.93 ± 0.018
6 | B7Z4W5 and related entries (UniProt Q5T278+Q16773+B7Z4W5) | 0.777 ± 0.045

Source: the supplement of paper PMC6411743
